Reference: article PMC4870680
Results are given in words; binding and its absence hold for the method and conditions named. In cells and extracts the contact can be indirect. Some binding calls cover weakened binding; strength is not graded here.

By UniProt entry, the sequences of proteins in these tests, tags left out. Where a name states a change or a piece, a line headed by the entry shows the natural chain unless it says otherwise.
UniProt Q00613: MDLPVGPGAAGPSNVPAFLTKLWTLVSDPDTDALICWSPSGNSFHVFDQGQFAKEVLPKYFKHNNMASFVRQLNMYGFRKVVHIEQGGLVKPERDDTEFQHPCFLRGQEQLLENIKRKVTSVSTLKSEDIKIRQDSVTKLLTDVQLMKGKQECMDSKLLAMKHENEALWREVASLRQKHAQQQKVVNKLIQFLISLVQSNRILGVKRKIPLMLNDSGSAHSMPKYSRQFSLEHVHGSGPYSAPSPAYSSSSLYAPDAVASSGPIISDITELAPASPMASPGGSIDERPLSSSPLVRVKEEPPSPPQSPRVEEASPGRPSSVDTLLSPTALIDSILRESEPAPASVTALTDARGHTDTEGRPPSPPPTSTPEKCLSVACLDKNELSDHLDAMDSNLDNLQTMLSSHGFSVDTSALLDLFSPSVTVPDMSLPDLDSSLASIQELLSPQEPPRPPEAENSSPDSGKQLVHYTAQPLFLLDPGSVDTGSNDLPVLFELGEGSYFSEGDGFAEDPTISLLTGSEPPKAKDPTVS
UniProt Q09472: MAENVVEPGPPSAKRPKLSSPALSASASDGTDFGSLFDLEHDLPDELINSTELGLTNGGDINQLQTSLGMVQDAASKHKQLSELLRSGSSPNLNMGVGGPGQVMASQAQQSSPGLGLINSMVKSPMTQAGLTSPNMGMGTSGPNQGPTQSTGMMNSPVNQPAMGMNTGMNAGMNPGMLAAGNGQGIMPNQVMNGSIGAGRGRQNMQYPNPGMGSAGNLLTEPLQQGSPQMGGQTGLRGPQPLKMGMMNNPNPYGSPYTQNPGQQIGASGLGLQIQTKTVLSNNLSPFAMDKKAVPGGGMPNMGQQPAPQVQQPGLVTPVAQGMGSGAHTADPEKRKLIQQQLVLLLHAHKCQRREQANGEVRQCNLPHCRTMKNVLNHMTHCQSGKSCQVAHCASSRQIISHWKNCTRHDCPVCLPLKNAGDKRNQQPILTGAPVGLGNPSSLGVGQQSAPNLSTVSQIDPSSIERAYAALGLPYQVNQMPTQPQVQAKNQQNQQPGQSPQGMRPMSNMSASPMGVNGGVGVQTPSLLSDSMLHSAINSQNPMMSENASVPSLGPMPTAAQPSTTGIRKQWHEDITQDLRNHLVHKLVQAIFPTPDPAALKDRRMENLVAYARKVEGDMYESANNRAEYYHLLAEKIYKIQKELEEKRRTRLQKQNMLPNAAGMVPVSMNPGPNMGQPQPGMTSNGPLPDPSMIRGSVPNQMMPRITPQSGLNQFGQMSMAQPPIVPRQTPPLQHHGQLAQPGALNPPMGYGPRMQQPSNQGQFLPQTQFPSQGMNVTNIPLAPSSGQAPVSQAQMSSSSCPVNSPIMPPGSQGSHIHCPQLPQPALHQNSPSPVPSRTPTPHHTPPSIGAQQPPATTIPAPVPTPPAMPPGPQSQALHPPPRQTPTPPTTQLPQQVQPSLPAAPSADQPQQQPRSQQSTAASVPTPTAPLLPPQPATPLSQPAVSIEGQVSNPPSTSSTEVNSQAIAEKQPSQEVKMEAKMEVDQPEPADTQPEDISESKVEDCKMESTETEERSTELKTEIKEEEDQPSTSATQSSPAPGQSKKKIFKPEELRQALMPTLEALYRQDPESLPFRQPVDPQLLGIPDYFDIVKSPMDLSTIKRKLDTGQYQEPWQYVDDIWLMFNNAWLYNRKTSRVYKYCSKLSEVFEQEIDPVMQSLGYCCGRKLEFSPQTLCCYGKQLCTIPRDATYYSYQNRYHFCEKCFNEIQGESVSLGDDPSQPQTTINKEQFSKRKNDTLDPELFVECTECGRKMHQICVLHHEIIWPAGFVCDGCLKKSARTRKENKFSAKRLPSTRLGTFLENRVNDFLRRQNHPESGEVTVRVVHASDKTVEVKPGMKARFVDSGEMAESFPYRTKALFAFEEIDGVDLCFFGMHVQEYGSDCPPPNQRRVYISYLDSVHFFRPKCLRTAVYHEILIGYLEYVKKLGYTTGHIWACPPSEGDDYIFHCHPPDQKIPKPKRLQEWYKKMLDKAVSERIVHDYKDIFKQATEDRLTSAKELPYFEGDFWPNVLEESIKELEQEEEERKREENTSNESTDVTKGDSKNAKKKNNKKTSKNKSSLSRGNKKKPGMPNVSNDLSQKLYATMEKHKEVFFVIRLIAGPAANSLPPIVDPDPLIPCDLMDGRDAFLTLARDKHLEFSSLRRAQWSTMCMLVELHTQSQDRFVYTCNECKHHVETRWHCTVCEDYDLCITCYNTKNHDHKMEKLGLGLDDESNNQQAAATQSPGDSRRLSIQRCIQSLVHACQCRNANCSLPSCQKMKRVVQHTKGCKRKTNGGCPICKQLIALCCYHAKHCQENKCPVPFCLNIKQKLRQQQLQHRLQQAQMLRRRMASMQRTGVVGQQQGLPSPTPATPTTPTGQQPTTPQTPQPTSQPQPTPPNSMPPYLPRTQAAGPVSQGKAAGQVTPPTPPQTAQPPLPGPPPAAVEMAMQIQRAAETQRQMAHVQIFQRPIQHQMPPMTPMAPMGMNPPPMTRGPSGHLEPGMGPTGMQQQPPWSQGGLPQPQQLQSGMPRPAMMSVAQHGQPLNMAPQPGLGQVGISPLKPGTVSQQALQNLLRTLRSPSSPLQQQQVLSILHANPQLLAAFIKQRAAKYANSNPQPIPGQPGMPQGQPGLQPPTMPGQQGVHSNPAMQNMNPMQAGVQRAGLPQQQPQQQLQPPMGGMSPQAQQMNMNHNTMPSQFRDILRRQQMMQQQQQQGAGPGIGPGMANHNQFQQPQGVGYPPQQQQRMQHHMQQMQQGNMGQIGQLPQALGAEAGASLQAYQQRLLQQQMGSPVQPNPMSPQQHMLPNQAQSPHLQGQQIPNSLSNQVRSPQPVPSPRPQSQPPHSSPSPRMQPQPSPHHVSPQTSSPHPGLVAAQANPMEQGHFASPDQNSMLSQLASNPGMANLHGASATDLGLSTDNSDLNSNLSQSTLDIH
UniProt P50750: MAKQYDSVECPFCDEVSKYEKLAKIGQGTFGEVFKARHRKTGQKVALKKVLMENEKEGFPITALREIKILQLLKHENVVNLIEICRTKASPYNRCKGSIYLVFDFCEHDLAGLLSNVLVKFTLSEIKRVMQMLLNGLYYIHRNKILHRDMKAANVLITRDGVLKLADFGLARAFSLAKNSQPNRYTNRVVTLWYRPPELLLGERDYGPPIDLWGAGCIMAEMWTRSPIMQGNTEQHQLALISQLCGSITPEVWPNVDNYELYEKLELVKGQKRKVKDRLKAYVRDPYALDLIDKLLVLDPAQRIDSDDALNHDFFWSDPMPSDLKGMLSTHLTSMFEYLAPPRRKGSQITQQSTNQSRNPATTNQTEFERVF

Molecular target: heat shock factor 1 (human (endogenous in J-Lat 10.6)) (UniProt Q00613)
Test: co-IP; J-Lat 10.6 cells treated with 200 uM salubrinal for 2 h, alone or with 5 uM KRIBB11 or 2 uM C646; lysis in 20 mM Tris pH 7.5, 150 mM NaCl, 1% Triton X-100; HSF1 antibody and protein A/G plus-agarose, 4 °C overnight; IgG as negative control; Western blot

binding | Substance
binds | p300 (from UniProt Q09472 1-2414)
binds | positive transcription elongation factor b (from UniProt P50750 1-372; O60563 1-726) (complex)
